Assay results taken from article doi:10.1101/2021.08.04.454762.
Results are given in words; binding and its absence hold for the method and conditions named. Binding seen in cells or lysates may run through a third protein. Some entries that bind do so weakly or less than the wild type.

Amino acid sequences for entries named in this document (tags omitted).
UniProt Q15554: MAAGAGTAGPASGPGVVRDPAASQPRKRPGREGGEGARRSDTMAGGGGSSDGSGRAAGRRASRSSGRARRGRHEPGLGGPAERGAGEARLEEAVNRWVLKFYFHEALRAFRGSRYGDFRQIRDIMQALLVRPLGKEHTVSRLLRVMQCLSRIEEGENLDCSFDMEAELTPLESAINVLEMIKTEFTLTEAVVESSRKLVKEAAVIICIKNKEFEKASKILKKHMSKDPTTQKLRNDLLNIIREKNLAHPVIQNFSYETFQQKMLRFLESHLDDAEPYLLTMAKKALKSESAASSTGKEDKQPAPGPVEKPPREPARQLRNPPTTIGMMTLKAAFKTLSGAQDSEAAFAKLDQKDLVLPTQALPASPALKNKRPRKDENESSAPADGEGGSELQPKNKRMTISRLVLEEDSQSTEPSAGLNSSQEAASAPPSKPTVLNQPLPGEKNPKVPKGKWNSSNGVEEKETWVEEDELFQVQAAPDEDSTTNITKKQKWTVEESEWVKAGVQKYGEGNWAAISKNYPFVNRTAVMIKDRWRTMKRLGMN
UniProt P54274: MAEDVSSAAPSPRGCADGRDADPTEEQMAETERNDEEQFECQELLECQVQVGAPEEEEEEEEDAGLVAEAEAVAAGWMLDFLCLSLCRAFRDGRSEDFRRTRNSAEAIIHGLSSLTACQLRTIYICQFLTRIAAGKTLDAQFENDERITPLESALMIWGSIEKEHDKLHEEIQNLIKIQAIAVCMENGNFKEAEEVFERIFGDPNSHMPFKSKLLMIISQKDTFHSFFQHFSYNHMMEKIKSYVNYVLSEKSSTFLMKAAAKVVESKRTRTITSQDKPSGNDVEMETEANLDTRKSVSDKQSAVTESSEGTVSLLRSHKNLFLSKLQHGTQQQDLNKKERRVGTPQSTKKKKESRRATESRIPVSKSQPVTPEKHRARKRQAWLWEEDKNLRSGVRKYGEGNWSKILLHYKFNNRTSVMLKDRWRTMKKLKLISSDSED
UniProt O43524: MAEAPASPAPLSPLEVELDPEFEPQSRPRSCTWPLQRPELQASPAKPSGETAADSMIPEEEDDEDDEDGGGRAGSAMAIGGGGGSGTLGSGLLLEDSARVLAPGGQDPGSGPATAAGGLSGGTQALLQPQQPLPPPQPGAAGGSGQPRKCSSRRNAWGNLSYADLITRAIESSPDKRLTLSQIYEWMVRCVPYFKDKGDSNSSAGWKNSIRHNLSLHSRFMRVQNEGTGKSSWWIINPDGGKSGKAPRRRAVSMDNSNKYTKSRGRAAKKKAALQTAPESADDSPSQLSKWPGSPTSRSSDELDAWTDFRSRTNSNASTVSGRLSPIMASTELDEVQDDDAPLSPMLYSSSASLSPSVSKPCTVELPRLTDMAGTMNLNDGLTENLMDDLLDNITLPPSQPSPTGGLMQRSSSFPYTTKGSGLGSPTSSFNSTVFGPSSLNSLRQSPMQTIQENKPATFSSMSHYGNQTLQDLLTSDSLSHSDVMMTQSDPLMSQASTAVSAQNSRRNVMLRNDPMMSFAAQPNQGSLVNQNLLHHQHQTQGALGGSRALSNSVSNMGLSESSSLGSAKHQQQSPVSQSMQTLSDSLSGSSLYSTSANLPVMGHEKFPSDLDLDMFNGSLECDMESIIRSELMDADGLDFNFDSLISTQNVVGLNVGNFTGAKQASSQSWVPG

Legend:
[1] = target: telomeric repeat binding factor 2 (TRF2) (human (endogenous in skeletal muscle biopsies and BJ-HELT fibroblasts)) (UniProt Q15554); assay: proximity ligation
[2] = target: TRF1 (human (endogenous in myotubes)) (UniProt P54274); assay: proximity ligation
[3] = target: telomeric repeat binding factor 2 (TRF2) (human (endogenous in skeletal muscle biopsies and BJ-HELT fibroblasts)) (UniProt Q15554); assay: co-IP

Substance	binding [1]	binding [2]	binding [3]
full-length FOXO3a (pWPIR-FOXO3aWT-GFP) (from UniProt O43524 1-673)	binds	–	–
FOXO3a (from UniProt O43524 1-673)	binds	binds	binds
